Experimental data as given in PubChem BioAssay AID1671190 (National Center for Advancing Translational Sciences (NCATS), 2021).
About 6,100 (1.1%) of roughly 580,000 compounds were called active. The shares of active, inactive and inconclusive entries below differ from those in the screen. The call rests on the fitted dose curve; in most records, active means well fitted inhibition curve with a large enough effect; inconclusive means small, poorly fitted or top-dose-only effect, or another doubt; inactive means no such curve, though single readings can be large or run the other way. Where the call is inconclusive, the potency comes from a doubtful curve fit.
On the % scale 0 is the no-effect control and ±100 the full control effect; potency means the concentration at half of the fitted maximal effect.

Sequences of proteins named here, by UniProt entry; tags and fusion partners are left off. A change or cut given only in a name is not applied to a line headed by its entry.
UniProt P18054: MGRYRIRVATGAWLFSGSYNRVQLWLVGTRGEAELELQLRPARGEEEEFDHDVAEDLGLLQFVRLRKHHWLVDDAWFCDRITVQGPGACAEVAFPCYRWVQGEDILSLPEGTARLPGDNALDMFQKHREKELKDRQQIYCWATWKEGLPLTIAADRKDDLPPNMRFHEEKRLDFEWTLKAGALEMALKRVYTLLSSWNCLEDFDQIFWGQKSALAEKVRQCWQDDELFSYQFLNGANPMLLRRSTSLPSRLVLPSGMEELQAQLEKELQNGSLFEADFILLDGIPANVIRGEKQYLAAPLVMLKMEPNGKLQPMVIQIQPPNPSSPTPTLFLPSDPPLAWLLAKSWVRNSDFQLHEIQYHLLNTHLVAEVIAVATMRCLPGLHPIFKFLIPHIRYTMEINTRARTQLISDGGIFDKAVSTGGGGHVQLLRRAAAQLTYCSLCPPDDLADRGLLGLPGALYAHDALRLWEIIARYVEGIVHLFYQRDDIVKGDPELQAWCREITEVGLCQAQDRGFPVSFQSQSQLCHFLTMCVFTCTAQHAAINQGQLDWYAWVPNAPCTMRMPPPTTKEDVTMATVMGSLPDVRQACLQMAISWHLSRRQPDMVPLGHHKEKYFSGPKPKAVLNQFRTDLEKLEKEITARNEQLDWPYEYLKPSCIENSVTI

These molecules were tested against Polyunsaturated fatty acid lipoxygenase ALOX12 (Homo sapiens) (UniProt P18054) (assay: Primary qHTS assay for inhibitors of human arachidonate 12S-lipoxygenase (ALOX12): Round 2). Conditions: purified 12hLO, xylenol orange hydroperoxide absorbance; activity change, negative = inhibition: at 108 µM (top of the series) unless noted.
Summary of the method: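 Purified human 12hLO (150 nM final) in 25 mM Hepes, 0.01% Triton X-100, pH 7.0 was preincubated 15 min at room temperature with compound. Then 40 uM arachidonic acid was added, 30 min. Hydroperoxide was read by Fe-XO absorbance ratio 573/405 nm.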
With `OCn1ncn(-c2ccccc2)c1=S` the Potency was inconclusive: 25.1 µM [inhibitor, single point].
With `CCNC(=O)C1(C)CCN(C(=O)c2cccc(C#N)c2)C1` (configuration not stated) the “activity change, negative = inhibition” value was inactive: 15.7%.
In the case of `C(=N\N=C1c2ccccc2-c2ccccc21)/c1cccs1`, the Potency is reported as inconclusive: 0.0891 µM [inhibitor, full curve, poor fit].
With `FC(F)Oc1ccc(-c2csc(NNC3=NCCCCC3)n2)cc1` the Potency was inconclusive: 50.1 µM [inhibitor, partial curve, poor fit].
With `Cc1ccc(S(=O)(=O)c2nc(-c3ccco3)oc2SC(C)c2ccccc2)cc1` (configuration not stated) the Potency was inconclusive: 50.1 µM [inhibitor, partial curve, poor fit].
For `CCCCN(CC)CCNC(=O)c1cc2c(-c3ccc(Cl)cc3)nn(C)c2s1`, the Potency was inconclusive: 50.1 µM [inhibitor, partial curve, poor fit].
In the case of `O=C(c1csc2nc(-c3ccc(F)cc3)cn12)N1C[C@H]2CC[C@@H](C1)N2`, the Potency is reported as inconclusive: 14.1 µM [inhibitor, full curve].
In the case of `COc1ccc(-c2ccc(CN3C(CC(C)C)C(=O)N(Cc4cn(Cc5ccco5)nn4)CCS3(=O)=O)cc2)cc1` (configuration not stated), the Potency is reported as inconclusive: 44.7 µM [inhibitor, partial curve, poor fit].
For `Cc1[nH]c(N)nc(=S)c1CCCNc1ccccc1`, the Potency was inconclusive: 50.1 µM [inhibitor, partial curve, poor fit].
In the case of `Cc1ccc(NC(=O)Cn2cc(C#N)c3ccccc32)cc1`, the “activity change, negative = inhibition” value is reported as inactive: -7.92%.
In the case of `Cc1nc2ccccc2n1CC(O)COc1ccc(C(=O)O)cc1` (configuration not stated), the “activity change, negative = inhibition” value is reported as inactive: -22.2%.
With `COC(=O)CNc1nc(-c2ccccc2F)nc2ccccc12` the “activity change, negative = inhibition” value was inactive: -4.54%.
`CN(CC(=O)Nc1ccccc1Oc1ccccc1)Cc1ccccc1F` was tested, and the “activity change, negative = inhibition” value was inactive: -16.8%.
In the case of `COc1ccc(CCC(=O)N2CCC([C@@H]3CNC[C@H]3CO)CC2)cc1`, the Potency is reported as inconclusive: 28.2 µM [inhibitor, single point].
With `COc1ccccc1NC(=O)Nc1nnc(Cc2ccccc2F)s1` the “activity change, negative = inhibition” value was inactive: -1.11%.
`COC(=O)c1[nH]c2cc(C)ccc2c1NC(=O)CN1CCCc2ccccc21` was tested, and the “activity change, negative = inhibition” value was inactive: -15.3%.
`CC(N=C1NS(=O)(=O)c2ccccc21)C(=O)NCc1ccc(F)cc1` (configuration not stated) was tested, and the Potency was inconclusive: 100 µM [inhibitor, single point].
In the case of `COc1ccc(S(=O)(=O)N(Cc2ccc(OC)c(OC)c2)Cc2ccco2)cc1`, the Potency is reported as inconclusive: 35.5 µM [inhibitor, single point].
In the case of `O=C(c1cc2ccccc2o1)c1ccc(F)cc1F`, the Potency is reported as inconclusive: 56.2 µM [inhibitor, partial curve, poor fit].
`Oc1[nH]c(=S)sc1C=C1N=c2ccccc2=N1` was tested, and the “activity change, negative = inhibition” value was inactive: 0%.
In the case of `CC(=O)NCCNc1nc2cc(-c3cc(F)ccc3C)sc2c(=O)n1C`, the Potency is reported as inconclusive: 44.7 µM [inhibitor, partial curve, poor fit].
For `COc1ccc2c(C)cc(SCC(=O)N3CCCC3)nc2c1`, the Potency was inconclusive: 12.6 µM [inhibitor, partial curve, poor fit].
`O=C(CSc1nc2c(oc3ccccc32)c(=O)n1Cc1ccco1)Nc1cccc(Cl)c1` was tested, and the Potency was inconclusive: 141 µM [inhibitor, partial curve, poor fit].
For `COCC(=O)N1CC[C@@H](CC(=O)O)[C@@H](CCN2CCN(c3ccccc3OC)CC2)C1`, the Potency was inconclusive: 126 µM [inhibitor, partial curve, poor fit].
With `Cc1ccc(Cl)cc1N1CCN(S(=O)(=O)c2ccc3c(c2)NC(=O)CCS3)CC1` the Potency was inconclusive: 50.1 µM [inhibitor, partial curve, poor fit].
For `N#C/C(=C/c1ccccc1)C(=O)OCC(=O)N1CCc2ccccc2C1`, the Potency was inconclusive: 44.7 µM [inhibitor, partial curve, poor fit].
`CCc1noc(-c2cn(C3CCN(C(=O)c4ccc(Cl)s4)C3)nn2)n1` (configuration not stated) was tested, and the “activity change, negative = inhibition” value was inactive: -5.12%.
In the case of `C=CCc1ccccc1OCC(O)CN1CCN(c2ccc(C)cc2)CC1` (configuration not stated), the Potency is reported as active: 0.562 µM.
In the case of `Cc1ccc2nc(N/N=C/c3ccco3)cc(C)c2c1`, the Potency is reported as inconclusive: 100 µM [inhibitor, partial curve, poor fit].
With `CCCSc1nnc(-c2ccccc2NC(C)=O)c(=O)[nH]1` the Potency was inconclusive: 56.2 µM [inhibitor, partial curve, poor fit].
In the case of `O=C(CCN=C1NS(=O)(=O)c2ccccc21)Nc1ccc(F)cc1Cl`, the “activity change, negative = inhibition” value is reported as inactive: -12.6%.
In the case of `c1cncc(CNc2ncncc2-c2ccc3c(c2)OCO3)c1`, the Potency is reported as inconclusive: 7.08 µM [inhibitor, full curve, poor fit].
In the case of `O=C(/C=C/C(Cl)(Cl)Cl)Nc1ccc(Cl)cc1`, the Potency is reported as inconclusive: 39.8 µM [inhibitor, partial curve, poor fit].
`O=C(O)CCc1ccc(-c2ccccc2)n1-c1cccc(O)c1` was tested, and the Potency was inconclusive: 39.8 µM [inhibitor, partial curve].
In the case of `COc1cc2c(c3oc(-c4ccccc4)cc(=O)c13)C=CC(C)(C)O2`, the Potency is reported as inconclusive: 141 µM [inhibitor, single point].
In the case of `CC(=O)c1cccc(S(=O)(=O)NCc2c(C)nn(Cc3ccccc3)c2C)c1`, the “activity change, negative = inhibition” value is reported as inactive: 17.4%.
In the case of `CN(C(=O)c1cccc(Cl)c1)C1CCCc2ccccc21` (configuration not stated), the “activity change, negative = inhibition” value is reported as inactive: 4.96% [at 176 µM].
In the case of `Cn1nc(-c2ccc(NC3CCCCC3)c([N+](=O)[O-])c2)c2ccccc2c1=O`, the Potency is reported as inconclusive: 0.251 µM [inhibitor, full curve, poor fit].
In the case of `COc1cc2c(cc1NS(=O)(=O)c1cccc(C#N)c1)n(C)c(=O)n2C`, the Potency is reported as inconclusive: 100 µM [inhibitor, single point].
For `Cc1cc(C)cc(NC(=O)CN2C(=O)c3ccccc3Sc3ccc(C(=O)N4CCOCC4)cc32)c1`, the Potency was inconclusive: 112 µM [inhibitor, partial curve, poor fit].
For `CCc1ccc2nc(N(CCCN(C)C)C(=O)c3ccc(S(=O)(=O)N4CCCC4)cc3)sc2c1`, the Potency was inconclusive: 44.7 µM [inhibitor, partial curve, poor fit].
In the case of `C[C@@H]1CCCCO[C@H](CN(C)C(=O)Nc2ccc(F)cc2)[C@@H](C)CN([C@H](C)CO)C(=O)c2cc(NC(=O)c3ccccc3)ccc2O1`, the Potency is reported as inconclusive: 35.5 µM [inhibitor, partial curve, poor fit].
